Test results: the supplement of paper PMC10849652
Some of the results follow.

By UniProt entry, the sequences of proteins in these tests, tags left out. Where a name states a change or a piece, a line headed by the entry shows the natural chain unless it says otherwise.
UniProt Q9BU02: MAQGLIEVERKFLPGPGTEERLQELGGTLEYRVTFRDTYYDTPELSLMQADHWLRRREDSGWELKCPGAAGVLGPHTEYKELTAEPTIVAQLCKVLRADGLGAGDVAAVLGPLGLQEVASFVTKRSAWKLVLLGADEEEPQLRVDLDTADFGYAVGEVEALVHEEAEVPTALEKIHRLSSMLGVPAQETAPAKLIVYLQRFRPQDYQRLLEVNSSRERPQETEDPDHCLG
UniProt Q9BQ70: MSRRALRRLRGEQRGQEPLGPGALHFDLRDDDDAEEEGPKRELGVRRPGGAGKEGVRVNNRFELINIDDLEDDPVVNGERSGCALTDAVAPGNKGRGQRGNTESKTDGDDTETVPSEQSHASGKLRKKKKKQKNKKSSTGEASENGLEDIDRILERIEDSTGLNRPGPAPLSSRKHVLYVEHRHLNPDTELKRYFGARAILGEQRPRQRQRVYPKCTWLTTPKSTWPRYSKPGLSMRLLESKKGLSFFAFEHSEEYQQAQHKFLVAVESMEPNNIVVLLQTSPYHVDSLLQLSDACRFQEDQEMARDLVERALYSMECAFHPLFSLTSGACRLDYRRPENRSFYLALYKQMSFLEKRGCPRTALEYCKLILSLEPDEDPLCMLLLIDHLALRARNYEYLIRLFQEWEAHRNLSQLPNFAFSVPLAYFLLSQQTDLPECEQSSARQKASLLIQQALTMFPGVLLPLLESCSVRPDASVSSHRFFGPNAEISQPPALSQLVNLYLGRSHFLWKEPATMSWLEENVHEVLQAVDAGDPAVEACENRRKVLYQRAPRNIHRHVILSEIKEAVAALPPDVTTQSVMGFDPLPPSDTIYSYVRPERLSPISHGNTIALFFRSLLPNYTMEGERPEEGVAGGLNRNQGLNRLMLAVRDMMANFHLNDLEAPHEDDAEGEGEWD
UniProt O43422: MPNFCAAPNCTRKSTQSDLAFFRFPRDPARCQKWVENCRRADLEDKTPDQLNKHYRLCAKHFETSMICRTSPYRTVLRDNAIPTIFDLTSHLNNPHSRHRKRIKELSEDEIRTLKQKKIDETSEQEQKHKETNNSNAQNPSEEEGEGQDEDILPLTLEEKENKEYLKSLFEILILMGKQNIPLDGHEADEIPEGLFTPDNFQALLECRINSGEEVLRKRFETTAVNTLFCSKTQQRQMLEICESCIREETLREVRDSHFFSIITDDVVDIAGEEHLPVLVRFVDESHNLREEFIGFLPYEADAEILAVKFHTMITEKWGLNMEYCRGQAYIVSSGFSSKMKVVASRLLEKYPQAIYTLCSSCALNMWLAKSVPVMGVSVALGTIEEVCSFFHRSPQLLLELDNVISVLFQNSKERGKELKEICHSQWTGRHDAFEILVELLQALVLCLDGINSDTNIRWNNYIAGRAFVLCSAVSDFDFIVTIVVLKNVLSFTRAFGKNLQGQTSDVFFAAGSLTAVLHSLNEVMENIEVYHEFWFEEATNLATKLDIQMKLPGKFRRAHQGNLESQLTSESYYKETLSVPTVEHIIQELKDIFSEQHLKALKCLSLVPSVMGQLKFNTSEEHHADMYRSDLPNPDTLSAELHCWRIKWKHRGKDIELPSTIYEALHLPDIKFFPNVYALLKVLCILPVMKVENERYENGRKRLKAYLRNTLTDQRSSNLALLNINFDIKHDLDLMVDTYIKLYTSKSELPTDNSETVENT
UniProt Q9UHQ7: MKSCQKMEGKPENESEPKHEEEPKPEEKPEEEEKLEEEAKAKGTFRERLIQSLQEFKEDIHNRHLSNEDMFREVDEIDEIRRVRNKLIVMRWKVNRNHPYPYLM
UniProt O43435: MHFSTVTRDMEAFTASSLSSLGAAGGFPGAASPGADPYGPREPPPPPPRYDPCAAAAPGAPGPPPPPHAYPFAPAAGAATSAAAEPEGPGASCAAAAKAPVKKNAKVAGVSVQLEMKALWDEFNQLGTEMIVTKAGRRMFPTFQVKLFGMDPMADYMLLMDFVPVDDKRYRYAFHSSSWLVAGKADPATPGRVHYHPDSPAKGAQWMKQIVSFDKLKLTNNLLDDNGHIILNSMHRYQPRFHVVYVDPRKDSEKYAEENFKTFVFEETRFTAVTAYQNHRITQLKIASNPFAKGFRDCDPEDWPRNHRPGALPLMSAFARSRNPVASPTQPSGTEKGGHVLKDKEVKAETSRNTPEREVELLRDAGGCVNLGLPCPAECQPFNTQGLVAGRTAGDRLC
UniProt Q04726: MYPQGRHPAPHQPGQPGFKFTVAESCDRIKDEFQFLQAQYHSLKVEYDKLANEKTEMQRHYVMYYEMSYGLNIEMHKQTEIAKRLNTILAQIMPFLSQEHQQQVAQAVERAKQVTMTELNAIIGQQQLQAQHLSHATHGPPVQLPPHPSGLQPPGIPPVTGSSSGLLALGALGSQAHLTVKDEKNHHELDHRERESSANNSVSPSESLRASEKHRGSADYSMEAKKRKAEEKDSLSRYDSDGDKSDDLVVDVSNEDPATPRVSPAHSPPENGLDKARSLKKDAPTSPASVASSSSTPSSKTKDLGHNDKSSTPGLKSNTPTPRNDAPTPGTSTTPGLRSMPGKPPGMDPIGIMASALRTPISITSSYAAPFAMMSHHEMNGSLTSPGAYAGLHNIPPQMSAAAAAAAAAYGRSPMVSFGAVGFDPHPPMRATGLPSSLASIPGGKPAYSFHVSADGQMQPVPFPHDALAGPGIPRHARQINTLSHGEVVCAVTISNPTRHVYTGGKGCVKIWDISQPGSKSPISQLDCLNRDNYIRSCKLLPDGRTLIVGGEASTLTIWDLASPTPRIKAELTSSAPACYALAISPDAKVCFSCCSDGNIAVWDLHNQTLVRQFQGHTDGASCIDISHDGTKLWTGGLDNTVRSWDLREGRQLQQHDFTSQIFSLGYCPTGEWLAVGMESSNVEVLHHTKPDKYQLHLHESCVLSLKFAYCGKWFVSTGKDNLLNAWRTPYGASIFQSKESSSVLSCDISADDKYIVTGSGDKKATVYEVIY
UniProt Q01664: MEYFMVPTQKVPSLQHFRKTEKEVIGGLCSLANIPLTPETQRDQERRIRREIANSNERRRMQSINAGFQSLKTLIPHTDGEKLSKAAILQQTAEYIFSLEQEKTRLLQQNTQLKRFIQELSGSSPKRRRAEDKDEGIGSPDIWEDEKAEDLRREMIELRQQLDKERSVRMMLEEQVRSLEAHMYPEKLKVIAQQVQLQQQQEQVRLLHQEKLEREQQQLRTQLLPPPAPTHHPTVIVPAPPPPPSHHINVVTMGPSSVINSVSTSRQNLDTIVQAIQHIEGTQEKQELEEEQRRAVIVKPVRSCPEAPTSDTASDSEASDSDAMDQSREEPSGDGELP
UniProt Q9NQ88: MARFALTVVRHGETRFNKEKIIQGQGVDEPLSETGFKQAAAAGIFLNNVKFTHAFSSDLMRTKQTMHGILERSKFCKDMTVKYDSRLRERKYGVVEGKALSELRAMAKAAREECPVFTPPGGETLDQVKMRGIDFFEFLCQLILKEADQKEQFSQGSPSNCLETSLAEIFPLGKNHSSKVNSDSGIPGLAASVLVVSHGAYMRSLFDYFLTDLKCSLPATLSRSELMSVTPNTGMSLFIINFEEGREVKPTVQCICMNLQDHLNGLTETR
UniProt Q9BYX2: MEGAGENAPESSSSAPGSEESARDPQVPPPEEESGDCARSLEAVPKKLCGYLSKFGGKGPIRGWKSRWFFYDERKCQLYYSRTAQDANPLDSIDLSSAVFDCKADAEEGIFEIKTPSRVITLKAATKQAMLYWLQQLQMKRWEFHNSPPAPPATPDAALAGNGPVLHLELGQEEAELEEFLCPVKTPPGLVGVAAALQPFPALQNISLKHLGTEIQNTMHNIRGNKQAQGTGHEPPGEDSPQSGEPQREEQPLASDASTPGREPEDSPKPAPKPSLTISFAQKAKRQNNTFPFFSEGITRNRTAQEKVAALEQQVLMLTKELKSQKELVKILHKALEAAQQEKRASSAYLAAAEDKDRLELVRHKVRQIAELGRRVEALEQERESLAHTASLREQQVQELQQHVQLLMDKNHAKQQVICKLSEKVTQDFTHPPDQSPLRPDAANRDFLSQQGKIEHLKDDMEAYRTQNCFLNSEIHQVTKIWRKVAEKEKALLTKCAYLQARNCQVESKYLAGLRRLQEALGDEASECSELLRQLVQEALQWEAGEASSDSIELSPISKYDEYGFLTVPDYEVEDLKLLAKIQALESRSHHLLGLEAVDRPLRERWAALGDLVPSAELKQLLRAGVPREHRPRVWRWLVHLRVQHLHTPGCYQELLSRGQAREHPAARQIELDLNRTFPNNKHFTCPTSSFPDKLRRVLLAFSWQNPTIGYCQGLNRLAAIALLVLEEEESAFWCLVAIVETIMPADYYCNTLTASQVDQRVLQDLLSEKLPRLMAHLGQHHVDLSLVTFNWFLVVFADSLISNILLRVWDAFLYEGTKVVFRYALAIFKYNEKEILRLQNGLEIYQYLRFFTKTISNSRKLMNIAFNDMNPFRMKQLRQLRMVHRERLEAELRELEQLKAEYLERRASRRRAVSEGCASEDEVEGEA
UniProt Q96EI5: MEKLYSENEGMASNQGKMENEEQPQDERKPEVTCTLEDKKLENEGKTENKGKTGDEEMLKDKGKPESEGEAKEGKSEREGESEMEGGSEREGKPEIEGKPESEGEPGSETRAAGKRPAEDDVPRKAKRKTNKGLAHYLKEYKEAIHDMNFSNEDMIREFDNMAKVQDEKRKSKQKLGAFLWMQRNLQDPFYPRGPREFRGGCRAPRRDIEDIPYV
UniProt Q9NUJ3: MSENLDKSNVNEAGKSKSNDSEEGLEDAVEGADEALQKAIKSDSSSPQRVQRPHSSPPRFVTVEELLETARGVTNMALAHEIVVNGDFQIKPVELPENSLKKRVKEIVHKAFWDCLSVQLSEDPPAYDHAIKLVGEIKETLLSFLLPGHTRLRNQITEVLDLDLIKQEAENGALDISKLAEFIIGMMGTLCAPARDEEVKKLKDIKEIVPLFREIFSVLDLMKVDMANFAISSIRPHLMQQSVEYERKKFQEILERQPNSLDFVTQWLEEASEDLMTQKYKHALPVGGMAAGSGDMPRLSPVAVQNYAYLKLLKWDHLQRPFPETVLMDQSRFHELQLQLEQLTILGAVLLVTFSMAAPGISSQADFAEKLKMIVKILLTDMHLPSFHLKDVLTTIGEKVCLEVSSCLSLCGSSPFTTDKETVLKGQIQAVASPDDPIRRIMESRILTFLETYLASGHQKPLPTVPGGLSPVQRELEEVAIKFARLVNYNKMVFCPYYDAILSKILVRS
UniProt Q9UBB9: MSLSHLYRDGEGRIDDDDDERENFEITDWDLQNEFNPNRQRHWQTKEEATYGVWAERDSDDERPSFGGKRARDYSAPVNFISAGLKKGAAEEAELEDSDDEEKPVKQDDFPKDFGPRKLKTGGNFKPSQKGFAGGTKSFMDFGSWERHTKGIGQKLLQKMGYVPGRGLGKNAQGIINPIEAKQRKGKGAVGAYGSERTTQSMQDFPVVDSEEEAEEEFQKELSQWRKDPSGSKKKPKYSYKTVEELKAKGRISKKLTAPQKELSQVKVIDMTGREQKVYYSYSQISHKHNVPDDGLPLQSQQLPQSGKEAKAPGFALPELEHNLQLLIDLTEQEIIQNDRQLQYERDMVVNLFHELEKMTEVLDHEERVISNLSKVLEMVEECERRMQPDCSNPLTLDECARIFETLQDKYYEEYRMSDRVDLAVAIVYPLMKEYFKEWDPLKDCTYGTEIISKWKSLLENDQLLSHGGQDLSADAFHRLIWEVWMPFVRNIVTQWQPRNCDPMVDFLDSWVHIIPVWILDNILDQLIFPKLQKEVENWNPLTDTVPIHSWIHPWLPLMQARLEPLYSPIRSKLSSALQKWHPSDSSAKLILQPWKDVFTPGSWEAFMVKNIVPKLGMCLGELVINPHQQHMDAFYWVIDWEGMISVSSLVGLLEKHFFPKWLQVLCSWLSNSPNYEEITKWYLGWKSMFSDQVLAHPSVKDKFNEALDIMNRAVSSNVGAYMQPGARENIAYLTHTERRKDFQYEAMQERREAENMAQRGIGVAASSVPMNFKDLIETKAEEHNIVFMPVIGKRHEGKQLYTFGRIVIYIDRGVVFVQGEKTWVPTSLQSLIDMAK
UniProt Q7L2K0: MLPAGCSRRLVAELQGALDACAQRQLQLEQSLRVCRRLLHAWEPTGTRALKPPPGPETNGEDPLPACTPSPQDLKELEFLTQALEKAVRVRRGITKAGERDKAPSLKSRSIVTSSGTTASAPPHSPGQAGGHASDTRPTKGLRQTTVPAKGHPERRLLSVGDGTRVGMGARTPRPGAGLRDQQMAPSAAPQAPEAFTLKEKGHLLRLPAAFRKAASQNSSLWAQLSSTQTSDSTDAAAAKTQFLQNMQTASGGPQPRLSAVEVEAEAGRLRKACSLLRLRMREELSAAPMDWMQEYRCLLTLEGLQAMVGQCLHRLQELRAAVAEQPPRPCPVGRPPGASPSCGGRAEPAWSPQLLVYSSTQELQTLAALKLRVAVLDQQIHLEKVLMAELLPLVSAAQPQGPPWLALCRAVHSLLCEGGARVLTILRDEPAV

Key:
Assay in all cases: log2 fold change, soluble protein after heating vs DMSO (PISA); higher = thermal stabilisation; K562 cells, 10 uM, 30 min; active = over 0.2 and 3.5 SD of the protein, either way, in both replicates (recomputed)
[1] = compound: CC1=C(C=C(C=C1)NC(=O)C2=CC(=CC=C2)N(C)C)NC(=O)C3=CC=C(C=C3)O
Summary of the method: (§1)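 K562 cells (2×10^6 cells/mL) were treated with 10 μM compound for 30 min, and aliquots were heated for 3 min over 48°C-58°C. Pooled aliquots were extracted in PBS with 0.5% NP-40 at 4°C, and the supernatant after 21,000xg for 90 min was measured by TMTpro 16plex LC-MS/MS with channel sums equalised. Reported thermal stability, relative to control samples and from duplicates, is a log2 fold change.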

Nexturastat A = compound: CCCCN(Cc1ccc(C(=O)NO)cc1)C(=O)Nc1ccccc1 [Nexturastat A]
Summary of the method: as §1

barasertib = compound: CCN(CCCOc1ccc2c(Nc3cc(CC(=O)Nc4cccc(F)c4)[nH]n3)ncnc2c1)CCOP(=O)(O)O [barasertib]
Summary of the method: as §1

epoxomicin = compound: CC[C@H](C)[C@@H](C(=O)N[C@@H]([C@@H](C)O)C(=O)N[C@@H](CC(C)C)C(=O)[C@]1(CO1)C)NC(=O)[C@H]([C@@H](C)CC)N(C)C(=O)C [epoxomicin]
Summary of the method: as §1

[2] = compound: CCn1cc(-c2ccnc3[nH]c(-c4cccc(CN(C)C)c4)cc23)c(-c2ccc(NC(=O)N(C)C)cc2)n1
Summary of the method: as §1

rosiglitazone = compound: CN(CCOC1=CC=C(C=C1)C[C@H]2C(=O)NC(=O)S2)C3=CC=CC=N3 (racemic) [rosiglitazone]
Summary of the method: as §1

[3] = compound: CN1CCC(CNc2ccc3ncc(-c4cccc(OC(F)(F)F)c4)n3n2)CC1
Summary of the method: as §1

[4] = compound: CC1=CC=C(C=C1)SC2=C3C=C(SC3=CN=C2)C(=O)N
Summary of the method: as §1

vemurafenib = compound: CCCS(=O)(=O)Nc1ccc(F)c(C(=O)c2c[nH]c3ncc(-c4ccc(Cl)cc4)cc23)c1F [vemurafenib]
Summary of the method: as §1

[5] = compound: CCCS(=O)(=O)Nc1ccc(F)c(C(=O)c2c[nH]c3ncc(Cl)cc23)c1F
Summary of the method: as §1

[6] = compound: CCCc1cc(C)[nH]c(=O)c1CNC(=O)c1cc(-c2ccnc(N3CCN(C)CC3)c2)cc2c1cnn2C(C)C
Summary of the method: as §1

givinostat = compound: CCN(CC)Cc1ccc2cc(COC(=O)Nc3ccc(C(=O)NO)cc3)ccc2c1 [givinostat]
Summary of the method: as §1

[7] = compound: CC[C@@H]1C(=O)N(C)c2cnc(Nc3ccc(C(=O)NC4CCN(C)CC4)cc3OC)nc2N1C1CCCC1
Summary of the method: as §1

volasertib = compound: CC[C@@H]1C(=O)N(C)c2cnc(Nc3ccc(C(=O)N[C@H]4CC[C@H](N5CCN(CC6CC6)CC5)CC4)cc3OC)nc2N1C(C)C [volasertib]
Summary of the method: as §1

[8] = compound: CCn1c(C(=O)N(C2CC2)C2CC2)cc2c3c(ncn3C)c(Nc3cc(C)n(C)n3)nc21
Summary of the method: as §1

[9] = compound: CN(C)CC(=O)Nc1ccc2[nH]c(=O)c3ccccc3c2c1
Summary of the method: as §1

[10] = compound: CN1C2=C(C3=C1C(=O)N(N=C3)CC4=CC(=CC=C4)N)SC(=C2)S(=O)C
Summary of the method: as §1

[11] = compound: CC1=NC(=CC=C1)C2=C(N=C(N2)C(C)(C)C)C3=CC4=NC=CN=C4C=C3
Summary of the method: as §1

[12] = compound: CC[C@H](C)N1C=C(C2=C(C=C(C=C21)C3=CN=C(C=C3)N4CCNCC4)C(=O)NCC5=C(C=C(NC5=O)C)C)C
Summary of the method: as §1

[13] = compound: CC1=C(C=C(C=C1)NC(=O)C2=CC(=CC=C2)C(C)(C)C#N)NC3=CC4=C(C=C3)N=CN(C4=O)C
Summary of the method: as §1

Measured: log2 fold change

TCF20 (UniProt Q9UGU0)
inactive: [1] 0.266 | Nexturastat A 0.134 | barasertib 0.121 | epoxomicin -0.122 | [2] -0.08 | rosiglitazone 0.129 | [3] -0.158

THTPA (UniProt Q9BU02)
inactive: [1] -0.031 | [4] -0.053 | vemurafenib 0.047 | [5] 0.052 | [6] -0.167 | givinostat -0.061 | barasertib 0.203 | [7] -0.166 | volasertib -0.187 | [8] -0.079 | [9] -0.136 | rosiglitazone -0.051 | [10] -0.155

TDRD3 isoform 3 (UniProt Q9H7E2)
inactive: [4] -0.16 | Nexturastat A 0.127 | vemurafenib -0.017 | [5] -0.04 | [6] 0.057 | barasertib -0.156 | volasertib 0.058 | epoxomicin -0.074 | [9] -0.012 | rosiglitazone -0.007

TCF4 isoform 3 (UniProt P15884)
inactive: [4] 0.058 | [5] -0.195 | volasertib -0.124 | [2] 0.01 | [10] -0.129 | [3] -0.043

TCF25 (UniProt Q9BQ70)
inactive: [1] -0.122 | [4] -0.007 | [11] -0.079 | Nexturastat A 0.14 | vemurafenib 0.108 | [5] -0.023 | [6] -0.008 | volasertib -0.296 | epoxomicin 0.21 | [2] -0.125 | [9] -0.09 | [3] -0.155

2 entries drawn at random from those above:
TCF20 (UniProt Q9UGU0)
inactive: [1] 0.266 | Nexturastat A 0.134 | barasertib 0.121 | epoxomicin -0.122 | [2] -0.08 | rosiglitazone 0.129 | [3] -0.158

THTPA (UniProt Q9BU02)
inactive: [1] -0.031 | [4] -0.053 | vemurafenib 0.047 | [5] 0.052 | [6] -0.167 | givinostat -0.061 | barasertib 0.203 | [7] -0.166 | volasertib -0.187 | [8] -0.079 | [9] -0.136 | rosiglitazone -0.051 | [10] -0.155

The list goes on:

THAP12 (UniProt O43422)
inactive: [1] -0.126 | [11] 0.108 | givinostat -0.079 | [12] 0.028 | [8] -0.154 | [2] -0.275 | [3] 0.266

TET2 (UniProt Q6N021)
inactive: [11] -0.074 | [6] -0.193 | [7] -0.474 | [12] -0.173

TCEAL9 (UniProt Q9UHQ7)
inactive: [13] -0.216 | Nexturastat A 0.576 | epoxomicin 1.1

TBX1 isoform 3 (UniProt O43435)
inactive: [4] -0.355 | [11] -0.063 | [5] -0.121 | volasertib -0.059 | [12] 0.067

TLE3 (UniProt Q04726)
inactive: barasertib 0.29 | [7] 0.138 | rosiglitazone 0.043

TFAP4 (UniProt Q01664)
inactive: [1] -0.036 | [4] 0.198 | [11] 0.117 | vemurafenib -0.12 | [5] -0.08 | barasertib 0.006 | [7] 0.018 | volasertib -0.21 | [12] 0.119 | [2] -0.072 | [9] 0.03 | rosiglitazone 0.004 | [3] -0.072

TIGAR (UniProt Q9NQ88)
inactive: barasertib -0.257 | [2] 0.177 | rosiglitazone 0.022 | [3] -0.05

TBC1D2 (UniProt Q9BYX2)
inactive: [6] 0.11 | [7] -0.055 | epoxomicin -0.238 | [2] 0.087 | [3] -0.019
active: Nexturastat A 0.618

TCEAL4 isoform 2 (UniProt Q96EI5)
inactive: [1] -0.181 | [4] 0.076 | [11] 0.046 | Nexturastat A 0.012 | vemurafenib 0.062 | [5] -0.045 | givinostat 0.04 | [7] -0.026 | volasertib 0.067 | epoxomicin 0.136 | [8] -0.053 | [2] 0.041 | [9] 0.07 | [10] 0 | [3] 0.018

TCP11L1 (UniProt Q9NUJ3)
inactive: [4] 0.241 | [5] 0.026 | [6] -0.066 | givinostat 0.355 | [7] -0.134 | volasertib -0.378 | [12] 0.076 | [8] 0.049 | [10] -0.14

TFIP11 (UniProt Q9UBB9)
inactive: [7] 0.029

TDRD7 (UniProt Q8NHU6)
inactive: [1] -0.048 | [11] 0.035 | Nexturastat A -0.463 | vemurafenib -0.01 | [6] -0.255 | givinostat -0.023 | [7] 0.129 | epoxomicin 0.411 | [8] -0.042 | [2] 0.054 | [9] 0.104 | [10] -0.043 | [3] -0.013

TBC1D9 (UniProt Q6ZT07)
inactive: vemurafenib 0.607 | givinostat -0.028 | barasertib -0.004 | [8] 0.044 | [9] -0.205 | rosiglitazone 0.141 | [10] -0.103

TGM2 (UniProt A2A299)
inactive: [1] -0.084 | [4] -0.023 | vemurafenib -0.153 | [5] 0.054 | [6] -0.604 | givinostat 0.129 | volasertib -0.292 | [8] -0.047 | [9] -0.085 | [10] -0.052

TEDC2 (UniProt Q7L2K0)
inactive: [10] 0.068
